## Drug screen on melanoma cell lines: cell count

From a melanoma drug combination screen (doi:10.1371/journal.pone.0140310); values rounded.

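The test systems are human melanoma cell lines, treated with a pair of drugs for 72 h and then stained and imaged. The read-out is cell count (nuclei) in % of the DMSO control; lower values mean stronger growth inhibition or killing. Every drug was used at one fixed concentration, the lower of two screened (a fifth of the higher). No replicate spread is given; individual values may be noisy.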
An unselected part of the screen is shown.
An entry leaves out what has no value listed here.

Drugs:
stibogluconate, 2000 nM: O=C(O)[C@@H]1[O][Sb](=[O])([O][Sb]2(=[O])[O][C@H]([C@H](O)CO)[C@H](O)[C@H](C(=O)O)[O]2)[O][C@H]([C@H](O)CO)[C@@H]1O (stereo partly specified)
LFM-A13, 2000 nM: C/C(O)=C(\C#N)C(=O)Nc1cc(Br)ccc1Br
T0901317, 1400 nM: O=S(=O)(c1ccccc1)N(CC(F)(F)F)c1ccc(C(O)(C(F)(F)F)C(F)(F)F)cc1
PLX4720, 80 nM: CCCS(=O)(=O)Nc1ccc(F)c(C(=O)c2c[nH]c3ncc(Cl)cc23)c1F
FH535, 1000 nM: Cc1cc([N+](=O)[O-])ccc1NS(=O)(=O)c1cc(Cl)ccc1Cl
A-769662, 2000 nM: N#Cc1c(O)c2c(-c3ccc(-c4ccccc4O)cc3)csc2[nH]c1=O
dovitinib, 100 nM: CN1CCN(c2ccc3nc(-c4c(N)c5c(F)cccc5[nH]c4=O)[nH]c3c2)CC1
RKI-983, 400 nM: C[C@@H](N)c1ccc(C(=O)Nc2ccnc3[nH]ccc23)cc1
L-779450, 200 nM: Oc1cc(-c2nc(-c3ccccc3)[nH]c2-c2ccncc2)ccc1Cl
vincristine, 0.1 nM: CC[C@]1(O)C[C@H]2CN(CCc3c([nH]c4ccccc34)[C@@](C(=O)OC)(c3cc4c(cc3OC)N(C=O)[C@H]3[C@@](O)(C(=O)OC)[C@H](OC(C)=O)[C@]5(CC)C=CCN6CC[C@]43[C@@H]65)C2)C1
BI-D1870, 200 nM: CC(C)CCN1c2nc(Nc3cc(F)c(O)c(F)c3)ncc2N(C)C(=O)C1C (stereo unspecified)

{"drugs": "T0901317 and stibogluconate", "C32": 102, "A2058": 108, "A101D": 108}
{"drugs": "vincristine and A-769662", "C32": 96.0, "A2058": 32.8, "A101D": 75.1, "501mel": 63.9}
{"drugs": "PLX4720 and LFM-A13", "C32": 86.5, "A2058": 104, "A101D": 102, "501mel": 96.2}
{"drugs": "L-779450 and dovitinib", "C32": 93.1, "A2058": 101, "A101D": 92.1, "501mel": 74.0}
{"drugs": "FH535 and PLX4720", "C32": 75.0, "A2058": 98.4, "A101D": 77.4, "501mel": 110}
{"drugs": "FH535 and dovitinib", "C32": 94.2, "A2058": 93.2, "A101D": 70.7, "501mel": 87.1}
{"drugs": "dovitinib and T0901317", "C32": 82.7, "A2058": 107, "A101D": 94.0}
{"drugs": "FH535 and RKI-983", "C32": 94.4, "A2058": 86.5, "A101D": 83.7, "501mel": 98.2}
{"drugs": "FH535 and vincristine", "C32": 58.5, "A2058": 14.2, "A101D": 55.3, "501mel": 57.5}
{"drugs": "LFM-A13 and vincristine", "C32": 77.2, "A2058": 25.8, "A101D": 72.1, "501mel": 84.5}
{"drugs": "BI-D1870 and A-769662", "C32": 89.2, "A2058": 84.0, "A101D": 91.3, "501mel": 89.0}
{"drugs": "RKI-983 and L-779450", "C32": 83.9, "A2058": 87.0, "A101D": 87.3, "501mel": 78.8}
{"drugs": "RKI-983 and A-769662", "C32": 85.2, "A2058": 80.0, "A101D": 93.1, "501mel": 122}
{"drugs": "stibogluconate and FH535", "C32": 112, "A2058": 93.2, "A101D": 77.3, "501mel": 98.8}
{"drugs": "T0901317 and FH535", "C32": 89.9, "A2058": 99.8, "A101D": 73.2, "501mel": 75.7}
{"drugs": "LFM-A13 and RKI-983", "C32": 84.2, "A2058": 81.8, "A101D": 92.2, "501mel": 124}
{"drugs": "BI-D1870 and PLX4720", "C32": 65.2, "A2058": 105, "A101D": 80.7, "501mel": 98.7}
{"drugs": "L-779450 and vincristine", "C32": 79.8, "A2058": 48.9, "A101D": 76.4, "501mel": 81.2}

For reference, 2 entries once more:

| Drugs | C32 | A2058 | A101D | 501mel |
|---|---|---|---|---|
| BI-D1870 and A-769662 | 89.2 | 84.0 | 91.3 | 89.0 |
| L-779450 and dovitinib | 93.1 | 101 | 92.1 | 74.0 |